# According to patent US5438062A, “Benzo(5,6)cycloheptapyridines, compositions and methods of use” (Schering Corporation, priority 1987, dated 1995):
# pIC50: −log10 of the molar value.
# Tested on: PAF-induced platelet aggregation (platelet-rich plasma)
# Assay: PAF antagonism, in vitro platelet aggregation assay
# Assay type: cell-based
# Details: dose giving 50 % PAF antagonism, human PRP, PAF 1-5×10^-8 M
# Experimental: Blood was centrifuged at 110×g for 15 min. and the supernatant PRP carefully transferred into a polypropylene tube. Platelet-poor-plasma (PPP) was prepared by centrifuging PRP at 12,000×g for 2 min. in a Beckman Microfuge B. PRP was used within 3 hours of drawing the blood.
# Platelet Aggregation Assay: When an aggregating agent such as PAF is added to PRP, platelets aggregate. An aggregometer quantifies this aggregation by measuring light (infra-red) transmission through PRP and comparing to PPP. The aggregation assays were performed using a dual-channel aggregometer (Model 440, Chrono-Log Corp., Hayertown, Pa.). PRP (0.45 ml) in aggregometer curettes was continually stirred (37° C.). Solutions of test compounds or vehicle were added to the PRP, and after incubation for 2 min., 10-15 μl aliquots of PAF solution were added so as to achieve a final concentration of 1-5×10^-8 M. Incubations were continued until the increase in light transmission reached a maximum (usually about 2 min). Values for inhibition were calculated by comparing maximal aggregation obtained in the absence and the presence of the compound. For each experiment, a standard PAF antagonist, such as alprazolam, was used as a positive internal control. […] The test results are shown below in Tables Ia, Ib and Ic.
compound,measurement,value
"CCOC(=O)N1CCC(=C2c3ccc(Cl)cc3CCc3cccnc32)CC1 [R = OC2 H5, R^3 = Cl, R4 = H, Z = O, 8-chloro-6,11-dihydro-11-(1-ethoxycarbonyl-4-piperidylidene)-5H-benzo[5,6]cyclohepta[1,2-b]pyridine, reference compound]",pIC50,3.76
